Where “and” joins values, the source holds several entries; their conditions need not be identical. Equal values may be shown once. The list shows a part of the results. Further columns of the screen follow, without active or inactive calls. The list favours compounds with an active or inconclusive main result. The note in brackets gives the kind of curve behind each potency; many fits are weak.

The experiment can be described thus: Cell signaling CRE-BLA (Fsk stim). The conditions noted are these: CHO CRE-bla reporter (cAMP response element driving beta-lactamase), forskolin EC10, beta-lactamase ratio; measured here: 460 nm blue channel. The method in brief: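 Titrated compounds plus EC10 NKH 477 on CHO CRE-bla cells, 3 h, 37 °C. CCF4, 2 h RT. Ratio 460/530 nm → AC50.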
As to `COc1ccc(C(=O)N2c3ccc(F)cc3CCC2C)cc1OC` (stereo not drawn), the AC50 – broadly, the midpoint of the concentration-response curve, whichever way the signal moves – was 25.1 µM [rising, single point].

Consider `COc1cc(SC)ccc1C(=O)Nc1ccc2c(c1)CCN2S(C)(=O)=O`, for which the AC50 is 12.6 µM [rising, partial curve].

As for `Cc1nn(S(=O)(=O)N(C)C)c(C)c1CN1C(=O)c2ccccc2C1=O`, the AC50 was 3.16 µM [rising, single point].

Consider `O=C1c2cccnc2C(O)N1Cc1ccc(F)cc1` (stereo not drawn), for which the AC50 was 31.6 µM [falling, single point].

On to `CCn1cc(C(=O)NCc2cccs2)c(=O)c2ccc(C)nc21`, for which the AC50 was 3.98 µM [rising, partial curve].

On to `O=S(c1ccccc1)c1ccc2nnnn2n1` (stereo not drawn), for which the AC50 is 12.6 µM [falling, partial curve].

As to `O=C(CCc1ccccc1)Nc1nc2n(n1)C(c1ccc(Cl)cc1)CC(=O)N2` (stereo not drawn), the AC50 was 3.16 µM [falling, single point].

As for `CCn1c(=N)c(C(=O)OC)cc2c(=O)n3ccccc3nc21`, the AC50 is 3.16 µM [rising, partial curve].

Turning to `Cc1cc(=O)oc2c(CN3CCOCC3)c(O)ccc12`, the AC50 is 12.6 µM [rising, partial curve].

`Cc1ccc(NC(=O)c2cc(N(C)C)ccc2[P+](=O)O)cc1`: the AC50 is 0.316 µM [falling, full curve].

On to `Cc1[nH]c2ccccc2c(=O)c1CN1CCCCC1`, for which the concentration at half-maximal activity (AC50) is 0.00316 µM [falling, full curve, poor fit].

As for `N[C@@H](C(=O)O)c1ccc(C(=O)O)cc1`, the AC50 is 12.6 µM [rising, single point].

On to `O=C(c1ccccc1)c1ccc2nc(N3CCCCC3)c3nncn3c2c1`, for which the AC50 is 12.6 µM [rising, partial curve].

As for `CCCc1nc(SCc2ccccn2)c2c(=O)n(C)c(=O)n(C)c2n1`, the AC50 was 6.31 µM [rising, partial curve].

Turning to `COc1ccc(S(=O)(=O)N2CCN(Cc3ccccc3)CC2)cc1`, the AC50 was 0.126 µM [rising, full curve].

In the case of `O=S(=O)(CCSc1nc2ccccc2o1)c1nc2ccccc2s1`, the AC50 was 5.01 µM [falling, partial curve].

Consider `C[C@@H]1CNCCN1S(=O)(=O)c1cccc2cnccc12`, for which the AC50 is 10 µM [falling, full curve] and 15.8 µM [falling, partial curve] and 7.94 µM [falling, full curve].

For `COc1ccc(/C=N/n2c(SC)nnc2-c2ccccc2)c(OC)c1OC`, the AC50 was 12.6 µM [rising, partial curve].

On to `O=C(O)c1cc2ccccc2c(Cc2cc3ccccc3c(C(=O)O)c2O)c1O` (tested in a mixture with another compound), for which the AC50 is 12.6 µM [falling, single point].

Turning to `CN(C)c1ccnc(NCc2ccccc2)c1C#N`, the AC50 was 12.6 µM [rising, partial curve].

For `O=S(=O)(Nc1ccc2c(c1)OCCO2)c1ccc2oc3ccccc3c2c1`, the AC50 is 25.1 µM [falling, single point].

As to `Cc1ccc(C)c(-n2c(Cc3cc(=O)[nH]c(=O)[nH]3)nnc2SCC(=O)NCc2ccco2)c1`, the AC50 was 0.501 µM [falling, partial curve].

For the compound `COc1cc(-c2nnc(SCc3ccccc3Cl)o2)cc(OC)c1OC`, the AC50 was 6.31 µM [rising, partial curve].

Regarding `CCn1c(SCC(=O)Nc2nnc(C)s2)nc2c(c1=O)SC(C)C2` (stereo not drawn), the AC50 is 10 µM [rising, partial curve].

As to `COc1ccc(CCn2c(=N)c(C(=O)N3CCN(C)CC3)cc3c(=O)n4ccccc4nc32)cc1`, the AC50 is 12.6 µM [rising, partial curve].

In the case of `Cc1cnc(CNc2cc(-c3ccc4c(c3)OCO4)ncn2)cn1`, the AC50 is 12.6 µM [rising, partial curve].

As for `O=C(O)c1cc(-c2cccs2)nc2cc3c(cc12)OCCO3`, the AC50 is 10 µM [rising, single point].

Consider `Cc1nn(-c2ccccc2)c(C)c1C(=O)OCC(=O)Nc1ccc2c(c1)OCO2`, for which the AC50 was 25.1 µM [rising, single point].

Consider `COCCn1c(=O)cnc2cnc(N(C)C)nc21`, for which the half-maximal activity concentration (AC50) was 12.6 µM [rising, partial curve].

As for `COC(=O)NCC(c1cccnc1)N1CCOCC1` (stereo not drawn), the AC50 is 12.6 µM [rising, partial curve].

As for `COc1ccccc1-n1cnc2cc(NCc3ccco3)ccc21`, the AC50 is 12.6 µM [rising, partial curve].

On to `Cc1cnnc2c1-c1nonc1CC2`, for which the AC50 was 0.00316 µM [falling, full curve, poor fit].

Regarding `OC1(Cc2ccn[nH]2)CCCCC1`, the AC50 was 2.51 µM [rising, full curve, poor fit].

Take `C=CC(C)n1c(Br)nc2c1c(=O)[nH]c(=O)n2C` (stereo not drawn): the AC50 was 15.8 µM [rising, partial curve, poor fit].

For the compound `COC(=O)c1sc(N)c(C(=O)OC)c1COC(=O)c1c(C)noc1C`, the AC50 is 5.01 µM [rising, partial curve].

`Cc1cnc(CNc2nc(-c3c(C)noc3C)nc3ccccc23)cn1`: the AC50 is 10 µM [rising, partial curve].

Consider `Clc1ccc(-c2nnc3sc(-c4ccc(Br)o4)nn23)c(Cl)c1`, for which the AC50 is 3.16 µM [falling, full curve].

In the case of `CCCCCCn1c(CN2CCN(C(=O)OCC)CC2)nc2c1c(=O)n(C)c(=O)n2C`, the AC50 was 5.01 µM [falling, partial curve].

For the compound `Cc1nn(Cc2ccccc2)c2c1C(c1ccncc1)C(C#N)=C(N)O2` (stereo not drawn), the AC50 was 1.26 µM [falling, partial curve].

In the case of `CC(=O)c1ccc(NC(=O)N[C@@H](Cc2ccccc2)C(=O)O)cc1`, the AC50 is 2.51 µM [falling, full curve].

As to `Cc1ccc(Nc2cc(-n3nc(C)cc3C)ncn2)c(C)c1`, the AC50 was 0.316 µM [falling, full curve].

`COc1ccc(NC(=O)c2ccco2)cc1NC(=O)c1cc2ccccc2o1`: the AC50 was 25.1 µM [rising, single point].

Regarding `COc1cc2c(C(=O)N3CCN(Cc4ccc5c(c4)OCO5)CC3)cn(C)c(=O)c2cc1OC`, the AC50 is 15.8 µM [rising, single point].

(Values after PubChem BioAssay AID662 (National Center for Advancing Translational Sciences (NCATS), 2007).)
